# This is one part of the list.
# Legend:
# Assay in all cases: glycan array binding signal (z-score within array); higher = stronger binding
# Details in all cases: glycan notation: IUPAC condensed, linker removed
# [1] = target: Fuc(a1-2)Gal
# How it was run: (§1)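 Glycan array binding is given as a within-array Z-score, which can be read as non-binding when negative. The arrays, 3228 of them, came from the Consortium for Functional Glycomics database and were retained only where the protein sequence was available. Z-scores were averaged across arrays of the same protein sequence at different concentrations or buffers and across linkers.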
# [2] = target: Fuc(a1-2)Gal(b1-3)GalNAc
# How it was run: as §1
# [3] = target: Fuc(a1-2)Gal(b1-3)GalNAc(a1-3)[Fuc(a1-2)]Gal(b1-4)Glc
# How it was run: as §1
# [4] = target: Fuc(a1-2)Gal(b1-3)GalNAc(a1-3)[Fuc(a1-2)]Gal(b1-4)GlcNAc
# How it was run: as §1
# [5] = target: Fuc(a1-2)Gal(b1-3)GalNAc(b1-3)Gal
# How it was run: as §1
# [6] = target: Fuc(a1-2)Gal(b1-3)GalNAc(b1-3)Gal(a1-4)Gal(b1-4)Glc
# How it was run: as §1
# [7] = target: Fuc(a1-2)Gal(b1-3)GalNAc(b1-4)[Neu5Ac(a2-3)]Gal(b1-4)Glc
# How it was run: as §1
# [8] = target: Fuc(a1-2)Gal(b1-3)GlcNAc
# How it was run: as §1
# [9] = target: Fuc(a1-2)Gal(b1-3)GlcNAc(b1-2)Man(a1-3)[Fuc(a1-2)Gal(b1-3)GlcNAc(b1-2)Man(a1-6)]Man(b1-4)GlcNAc(b1-4)GlcNAc
# How it was run: as §1
# [10] = target: Fuc(a1-2)Gal(b1-3)GlcNAc(b1-2)Man(a1-3)[Fuc(a1-2)Gal(b1-3)GlcNAc(b1-2)Man(a1-6)]Man(b1-4)GlcNAc(b1-4)[Fuc(a1-6)]GlcNAc
# How it was run: as §1
# [11] = target: Fuc(a1-2)Gal(b1-3)GlcNAc(b1-3)Gal(b1-4)Glc
# How it was run: as §1
# [12] = target: Fuc(a1-2)Gal(b1-3)GlcNAc(b1-3)GalNAc
# How it was run: as §1
# [13] = target: Fuc(a1-2)Gal(b1-3)GlcNAc(b1-3)[Fuc(a1-2)Gal(b1-3)GlcNAc(b1-6)]GalNAc
# How it was run: as §1
# [14] = target: Fuc(a1-2)Gal(b1-3)GlcNAc(b1-3)[Gal(b1-4)GlcNAc(b1-6)]Gal(b1-4)Glc
# How it was run: as §1
# [15] = target: Fuc(a1-2)Gal(b1-3)GlcNAc(b1-3)[Neu5Ac(a2-6)Gal(b1-4)GlcNAc(b1-6)]Gal(b1-4)Glc
# How it was run: as §1
# [16] = target: Fuc(a1-2)Gal(b1-3)GlcNAc6S
# How it was run: as §1
# [17] = target: Fuc(a1-2)Gal(b1-3)[Fuc(a1-4)]GlcNAc
# How it was run: as §1
# [18] = target: Fuc(a1-2)Gal(b1-3)[Fuc(a1-4)]GlcNAc(b1-2)Man(a1-3)[Fuc(a1-2)Gal(b1-3)[Fuc(a1-4)]GlcNAc(b1-2)Man(a1-3)]Man(b1-4)GlcNAc(b1-4)GlcNAc
# How it was run: as §1
# [19] = target: Fuc(a1-2)Gal(b1-3)[Fuc(a1-4)]GlcNAc(b1-2)Man(a1-3)[Fuc(a1-2)Gal(b1-3)[Fuc(a1-4)]GlcNAc(b1-2)Man(a1-6)]Man(b1-4)GlcNAc(b1-4)[Fuc(a1-6)]GlcNAc(b1-4)[Fuc(a1-6)]GlcNAc
# How it was run: as §1
# [20] = target: Fuc(a1-2)Gal(b1-3)[Fuc(a1-4)]GlcNAc(b1-3)[Fuc(a1-3)[Gal(b1-4)]GlcNAc(b1-6)]Gal(b1-4)Glc
# How it was run: as §1
# [21] = target: Fuc(a1-2)Gal(b1-3)[Fuc(a1-4)]GlcNAc(b1-3)[Gal(b1-4)GlcNAc(b1-6)]Gal(b1-4)Glc
# How it was run: as §1
# [22] = target: Fuc(a1-2)Gal(b1-4)Glc
# How it was run: as §1
# [23] = target: Fuc(a1-2)Gal(b1-4)Glc6S
# How it was run: as §1
# [24] = target: Fuc(a1-2)Gal(b1-4)GlcNAc
# How it was run: as §1
# [25] = target: Fuc(a1-2)Gal(b1-4)GlcNAc(b1-2)Man
# How it was run: as §1
# [26] = target: Fuc(a1-2)Gal(b1-4)GlcNAc(b1-2)Man(a1-3)[Fuc(a1-2)Gal(b1-4)GlcNAc(b1-2)Man(a1-6)]Man(b1-4)GlcNAc(b1-4)GlcNAc
# How it was run: as §1
# [27] = target: Fuc(a1-2)Gal(b1-4)GlcNAc(b1-2)Man(a1-3)[Fuc(a1-2)Gal(b1-4)GlcNAc(b1-2)Man(a1-6)]Man(b1-4)GlcNAc(b1-4)[Fuc(a1-6)]GlcNAc
# How it was run: as §1
# [28] = target: Fuc(a1-2)Gal(b1-4)GlcNAc(b1-2)[Fuc(a1-2)Gal(b1-4)GlcNAc(b1-4)]Man(a1-3)[Fuc(a1-2)Gal(b1-4)GlcNAc(b1-2)Man(a1-6)]Man(b1-4)GlcNAc(b1-4)GlcNAc
# How it was run: as §1
# [29] = target: Fuc(a1-2)Gal(b1-4)GlcNAc(b1-3)Gal(b1-4)GlcNAc
# How it was run: as §1
# [30] = target: Fuc(a1-2)Gal(b1-4)GlcNAc(b1-3)Gal(b1-4)GlcNAc(b1-2)Man(a1-3)[Fuc(a1-2)Gal(b1-4)GlcNAc(b1-3)Gal(b1-4)GlcNAc(b1-2)Man(a1-6)]Man(b1-4)GlcNAc(b1-4)GlcNAc
# How it was run: as §1
# [31] = target: Fuc(a1-2)Gal(b1-4)GlcNAc(b1-3)Gal(b1-4)GlcNAc(b1-3)Gal(b1-4)GlcNAc
# How it was run: as §1
# [32] = target: Fuc(a1-2)Gal(b1-4)GlcNAc(b1-3)GalNAc
# How it was run: as §1
# [33] = target: Fuc(a1-2)Gal(b1-4)GlcNAc(b1-3)[Fuc(a1-2)Gal(b1-4)GlcNAc(b1-6)]GalNAc
# How it was run: as §1
# [34] = target: Fuc(a1-2)Gal(b1-4)GlcNAc(b1-3)[Fuc(a1-3)[Gal(b1-4)]GlcNAc(b1-6)]Gal(b1-4)Glc
# How it was run: as §1
# [35] = target: Fuc(a1-2)Gal(b1-4)GlcNAc(b1-6)GalNAc
# How it was run: as §1
# [36] = target: Fuc(a1-2)Gal(b1-4)GlcNAc6S
# How it was run: as §1
# [37] = target: Fuc(a1-2)Gal(b1-4)[Fuc(a1-3)]GlcNAc
# How it was run: as §1
# [38] = target: Fuc(a1-2)Gal(b1-4)[Fuc(a1-3)]GlcNAc(b1-2)Man(a1-3)[Fuc(a1-2)Gal(b1-4)[Fuc(a1-3)]GlcNAc(b1-2)Man(a1-6)]Man(b1-4)GlcNAc(b1-4)[Fuc(a1-6)]GlcNAc
# How it was run: as §1
# [39] = target: Fuc(a1-2)Gal(b1-4)[Fuc(a1-3)]GlcNAc(b1-2)[Fuc(a1-2)Gal(b1-4)[Fuc(a1-3)]GlcNAc(b1-4)]Man(a1-3)[Fuc(a1-2)Gal(b1-4)[Fuc(a1-3)]GlcNAc(b1-2)Man(a1-6)]Man(b1-4)GlcNAc(b1-4)GlcNAc
# How it was run: as §1
# [40] = target: Fuc(a1-2)Gal(b1-4)[Fuc(a1-3)]GlcNAc(b1-3)Gal(b1-4)[Fuc(a1-3)]GlcNAc
# How it was run: as §1
# [41] = target: Fuc(a1-2)Gal(b1-4)[Fuc(a1-3)]GlcNAc(b1-3)Gal(b1-4)[Fuc(a1-3)]GlcNAc(b1-3)Gal(b1-4)[Fuc(a1-3)]GlcNAc
# How it was run: as §1
# [42] = target: Fuc(a1-2)Gal(b1-4)[Fuc(a1-3)]GlcNAc(b1-3)GalNAc
# How it was run: as §1
# [43] = target: Fuc(a1-2)Gal(b1-4)[Fuc(a1-3)]GlcNAc(b1-3)[Neu5Ac(a2-6)Gal(b1-4)GlcNAc(b1-6)]Gal(b1-4)Glc
# How it was run: as §1
# [44] = target: Fuc(a1-2)Gal3S(b1-4)GlcNAc
# How it was run: as §1
# [45] = target: Fuc(a1-2)Gal6S(b1-3)GlcNAc
# How it was run: as §1
binder,measurement,setting,value
GS13814A-bth-462-26-462 (Bacteroides thetaiotaomicron) (protein) DDRDNLMVNDQIGLLHSTYTETEIFRGMDTPYQLFVIKSGKGKQETEVSISVDETVLQSYNTDNGTSIQLLPSDCYTILQPALRLNDSDYRKAFDIKWNADRLSDLLSTGKEYGLPIQMSVVQNFISADDERLKTIIVPTIKEPYLQMDVPGMSPVTDFMPTFGDLNERELFVKIRTNYSNDEDISFQIEVDPQLVIDYNTAHGTAYKMLPESSFTVDNKGVILTGMKETFIKIKYHKKGLIPEEGTYLFGDYVLPLRITSVSKYGISPDAASKLYTVKFQPDPIDKKGWSVIDFNNCCTQDGGWYLNMGWGVESLIDNNPGTQWLCRWDVKEPLPYYFVFDMGKEYTLFRFGFANPVAPAAHVWAGTSKAGYVEASIDNENWVKLKDWTSPKIGEPNVNMDVPATQARYIRFVITDTYPTYDGLRVSLGEVYAWGM,glycan array binding signal (z-score),[1],0.789
same,glycan array binding signal (z-score),[2],0.571
same,glycan array binding signal (z-score),[3],-0.009
same,glycan array binding signal (z-score),[4],-1.06
same,glycan array binding signal (z-score),[5],0.037
same,glycan array binding signal (z-score),[6],-0.308
same,glycan array binding signal (z-score),[7],-0.003
same,glycan array binding signal (z-score),[8],-0.005
same,glycan array binding signal (z-score),[9],1.01
same,glycan array binding signal (z-score),[10],-0.414
same,glycan array binding signal (z-score),[11],0.315
same,glycan array binding signal (z-score),[12],-0.472
same,glycan array binding signal (z-score),[13],0.46
same,glycan array binding signal (z-score),[14],-0.86
same,glycan array binding signal (z-score),[15],-0.718
same,glycan array binding signal (z-score),[16],0.856
same,glycan array binding signal (z-score),[17],-1.06
same,glycan array binding signal (z-score),[18],1.49
same,glycan array binding signal (z-score),[19],0.703
same,glycan array binding signal (z-score),[20],-0.751
same,glycan array binding signal (z-score),[21],-0.3
same,glycan array binding signal (z-score),[22],0.064
same,glycan array binding signal (z-score),[23],0.689
same,glycan array binding signal (z-score),[24],-0.135
same,glycan array binding signal (z-score),[25],0.143
same,glycan array binding signal (z-score),[26],0.925
same,glycan array binding signal (z-score),[27],0.222
same,glycan array binding signal (z-score),[28],-0.627
same,glycan array binding signal (z-score),[29],-0.031
same,glycan array binding signal (z-score),[30],-0.179
same,glycan array binding signal (z-score),[31],-0.707
same,glycan array binding signal (z-score),[32],-0.823
same,glycan array binding signal (z-score),[33],-0.52
same,glycan array binding signal (z-score),[34],0.763
same,glycan array binding signal (z-score),[35],-0.42
same,glycan array binding signal (z-score),[36],-0.303
same,glycan array binding signal (z-score),[37],0.33
same,glycan array binding signal (z-score),[38],-0.921
same,glycan array binding signal (z-score),[39],0.171
same,glycan array binding signal (z-score),[40],1.33
same,glycan array binding signal (z-score),[41],0.023
same,glycan array binding signal (z-score),[42],2.19
same,glycan array binding signal (z-score),[43],-0.537
same,glycan array binding signal (z-score),[44],-0.428
same,glycan array binding signal (z-score),[45],-0.495

# An excerpt from the list above, as a working copy:
binder,measurement,setting,value
GS13814A-bth-462-26-462 (Bacteroides thetaiotaomicron) (protein) DDRDNLMVNDQIGLLHSTYTETEIFRGMDTPYQLFVIKSGKGKQETEVSISVDETVLQSYNTDNGTSIQLLPSDCYTILQPALRLNDSDYRKAFDIKWNADRLSDLLSTGKEYGLPIQMSVVQNFISADDERLKTIIVPTIKEPYLQMDVPGMSPVTDFMPTFGDLNERELFVKIRTNYSNDEDISFQIEVDPQLVIDYNTAHGTAYKMLPESSFTVDNKGVILTGMKETFIKIKYHKKGLIPEEGTYLFGDYVLPLRITSVSKYGISPDAASKLYTVKFQPDPIDKKGWSVIDFNNCCTQDGGWYLNMGWGVESLIDNNPGTQWLCRWDVKEPLPYYFVFDMGKEYTLFRFGFANPVAPAAHVWAGTSKAGYVEASIDNENWVKLKDWTSPKIGEPNVNMDVPATQARYIRFVITDTYPTYDGLRVSLGEVYAWGM,glycan array binding signal (z-score),[12],-0.472
same,glycan array binding signal (z-score),[13],0.46
same,glycan array binding signal (z-score),[14],-0.86
same,glycan array binding signal (z-score),[15],-0.718
same,glycan array binding signal (z-score),[16],0.856
same,glycan array binding signal (z-score),[17],-1.06
same,glycan array binding signal (z-score),[18],1.49
same,glycan array binding signal (z-score),[19],0.703
same,glycan array binding signal (z-score),[20],-0.751
same,glycan array binding signal (z-score),[21],-0.3
same,glycan array binding signal (z-score),[22],0.064
same,glycan array binding signal (z-score),[23],0.689
same,glycan array binding signal (z-score),[24],-0.135
